In paper PMC9424261:
No constants are given. Whether binding was seen depends on the method and setting. In cells and extracts the contact can be indirect. Some entries that bind do so weakly or less than the wild type.

Chains of the proteins cited; added tags and fusions are not shown.
UniProt Q86TM6: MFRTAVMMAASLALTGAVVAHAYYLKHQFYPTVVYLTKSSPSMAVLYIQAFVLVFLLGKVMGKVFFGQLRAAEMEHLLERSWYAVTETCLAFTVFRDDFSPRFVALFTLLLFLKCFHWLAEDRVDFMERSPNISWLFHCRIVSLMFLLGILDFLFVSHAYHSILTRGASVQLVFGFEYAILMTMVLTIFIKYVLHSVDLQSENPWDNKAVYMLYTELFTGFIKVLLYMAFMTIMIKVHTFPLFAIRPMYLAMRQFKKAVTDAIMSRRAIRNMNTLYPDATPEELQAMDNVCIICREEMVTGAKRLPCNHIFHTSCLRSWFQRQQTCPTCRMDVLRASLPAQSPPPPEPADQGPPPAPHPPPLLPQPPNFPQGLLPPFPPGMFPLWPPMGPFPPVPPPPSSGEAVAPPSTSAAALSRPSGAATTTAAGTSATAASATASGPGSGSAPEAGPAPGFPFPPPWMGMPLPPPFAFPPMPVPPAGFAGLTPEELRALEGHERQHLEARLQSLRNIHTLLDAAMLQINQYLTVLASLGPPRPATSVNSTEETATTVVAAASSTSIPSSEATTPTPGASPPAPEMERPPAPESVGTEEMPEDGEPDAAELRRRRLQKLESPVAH
UniProt Q00987: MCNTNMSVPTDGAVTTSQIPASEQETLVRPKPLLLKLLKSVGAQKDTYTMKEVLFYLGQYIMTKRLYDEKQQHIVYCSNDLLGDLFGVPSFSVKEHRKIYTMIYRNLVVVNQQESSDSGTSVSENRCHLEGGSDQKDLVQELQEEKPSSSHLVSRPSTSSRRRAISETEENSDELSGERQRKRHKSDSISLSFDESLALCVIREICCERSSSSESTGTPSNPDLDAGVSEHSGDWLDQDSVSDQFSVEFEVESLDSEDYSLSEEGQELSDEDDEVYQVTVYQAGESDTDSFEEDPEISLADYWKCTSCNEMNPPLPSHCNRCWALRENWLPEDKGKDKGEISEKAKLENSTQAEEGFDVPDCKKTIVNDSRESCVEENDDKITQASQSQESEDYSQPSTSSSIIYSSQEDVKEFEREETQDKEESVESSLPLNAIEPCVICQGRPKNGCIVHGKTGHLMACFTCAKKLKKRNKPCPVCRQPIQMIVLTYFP

What was measured:
[1] = target: T1, glutathione synthetase (GSS) (human (endogenous in Bel-7402 and Bel-7404)) (UniProt P48637); test: co-IP; reciprocal IP of endogenous proteins from lysates of Bel-7402 and Bel-7404 cells, wild-type or with HERPUD1 overexpressed; antibody overnight at 4 °C, protein A/G beads, immunoblot
T1 sequence: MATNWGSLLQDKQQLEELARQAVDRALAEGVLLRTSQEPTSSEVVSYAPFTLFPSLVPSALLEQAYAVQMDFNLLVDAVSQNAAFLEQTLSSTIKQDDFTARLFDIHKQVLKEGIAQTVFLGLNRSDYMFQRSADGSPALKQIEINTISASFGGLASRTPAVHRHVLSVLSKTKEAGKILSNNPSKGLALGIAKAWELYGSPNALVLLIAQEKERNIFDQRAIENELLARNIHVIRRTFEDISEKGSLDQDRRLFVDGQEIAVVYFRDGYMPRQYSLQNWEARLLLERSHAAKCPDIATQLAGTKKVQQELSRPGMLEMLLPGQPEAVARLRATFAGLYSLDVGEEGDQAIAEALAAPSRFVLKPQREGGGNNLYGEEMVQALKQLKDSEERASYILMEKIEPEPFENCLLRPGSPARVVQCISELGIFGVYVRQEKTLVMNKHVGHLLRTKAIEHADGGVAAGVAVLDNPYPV

[2] = target: T1, glutathione synthetase (GSS) (human (endogenous in Bel-7402 and Bel-7404)); test: co-IP; co-IP from tissue of Bel-7402 xenograft tumors of nude mice, immunoblot

Substance | binding [1] | binding [2]
SYVN1 (from UniProt Q86TM6 1-617) (enzyme) | no binding | 
murine double minute 2 (MDM2) (from UniProt Q00987 1-491) (enzyme) | binds | binds
